Reference: PubChem BioAssay AID686937 (Drosophila RNAi Screening Center, 2013)
The screen tested about 23,000 reagents; shown is an unselected part of those that have a named target and a result. 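Reduced-secretion tags in replicate 1 do not always agree with the z-scores; no criterion for assigning the tags was given.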 A plus sign joins genes that one reagent is predicted to hit. Not all columns of the deposit are shown. No sequences are given here. Not given: the amount of reagent.

Aim: 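Knock-downs that reduce output of a secreted reporter enzyme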 (primary screen)
Cell system: Drosophila S2 cells expressing secreted horseradish peroxidase
Reagents: long dsRNA against Drosophila genes
Timing: about 5.5 days (5 days dsRNA, then 12 h reporter induction)
Conditions: reporter expression induced after 5 days of dsRNA, read 12 h later; inducer not stated
Detection: 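Chemiluminescent measurement of peroxidase in the medium 12 h after reporter induction, following 5 days of dsRNA, given as a z-score per plate; higher means more secretion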
Reading the numbers: z-score: higher = more reporter secreted into medium

l(1)G0289 (lethal (1) G0289) [DRSC18215] gave z-score, replicate 1 = 0.41. Silencing of CG4962 [DRSC10464] resulted in: z-score, replicate 1 = 0.5. MstProx + Mst84Da [DRSC12597] scored z-score, replicate 1 = 0.17. Against Obp58b (Odorant-binding protein 58b) [DRSC04161], the entry reads z-score, replicate 1 = 0.22. After knock-down of Sec63 (Secretory 63) [DRSC11002], the screen gave z-score, replicate 1 = -0.39. Silencing of CG34367 [DRSC02238] came out at: z-score, replicate 1 = -0.03.

CG34367 [DRSC02850] scored z-score, replicate 1 = 0.15. For Vps16B (Vacuolar protein sorting 16B) [DRSC15304], the entry reads z-score, replicate 1 = 0.28. Depletion of CG6184 [DRSC15986] resulted in: z-score, replicate 1 = 0.31. Depletion of Polr3F (RNA polymerase III subunit F) [DRSC15785] came out at: z-score, replicate 1 = 0.1. With knock-down of CG13086 [DRSC02190] the results were z-score, replicate 1 = 0.55. For Pdhb (Pyruvate dehydrogenase E1 beta subunit) [DRSC14420] the deposit lists z-score, replicate 1 = 0.48.

Depletion of sra (sarah) [DRSC17015] resulted in: z-score, replicate 1 = 0.41. After knock-down of Cpr49Aa (Cuticular protein 49Aa) [DRSC07197], the record shows z-score, replicate 1 = 0.29. chn (charlatan) [DRSC06086] gave z-score, replicate 1 = -0.21. For CG6083 [DRSC10580], the entry reads z-score, replicate 1 = 0.18. Against CG18213 [DRSC15316], the values are z-score, replicate 1 = 0.07. Against IntS8 (Integrator 8) [DRSC07417], the entry reads z-score, replicate 1 = 1.05.

kumpel (kin of rumpel) [DRSC14883] showed z-score, replicate 1 = 0.49. With knock-down of kumpel (kin of rumpel) [DRSC16459], the screen gave z-score, replicate 1 = 0.37. For kumpel (kin of rumpel) [DRSC16460], the entry reads z-score, replicate 1 = 0.15. Against kumpel (kin of rumpel) [DRSC16461], the values are z-score, replicate 1 = 0.57. After knock-down of kumpel (kin of rumpel) [DRSC16462], the record shows z-score, replicate 1 = 0.32. After knock-down of kumpel (kin of rumpel) [DRSC16463] the results were z-score, replicate 1 = 0.32.

With knock-down of CG13022 [DRSC09902], the record shows z-score, replicate 1 = 0.3. For CG11696 [DRSC19417], the entry reads z-score, replicate 1 = 0.04. For CG14435 [DRSC17928] the deposit lists z-score, replicate 1 = -0.02. Against pes (peste) [DRSC03033], the values are z-score, replicate 1 = 0.07. Depletion of inaF-B [DRSC18903] gave: z-score, replicate 1 = 0.32. For kay (kayak) [DRSC13962], the values are z-score, replicate 1 = -0.47.

After knock-down of kay (kayak) [DRSC15048], the screen gave z-score, replicate 1 = -5.04. Against kay (kayak) [DRSC16977] the deposit lists z-score, replicate 1 = 0.71. Against Bap55 (Brahma associated protein 55kD) [DRSC07000], the values are z-score, replicate 1 = 0.42. betaNACtes2 (Nascent-associated complex beta-subunit-like, testis 2) [DRSC19792] showed z-score, replicate 1 = 0.27.

Copied from above (5 entries):
CG13022 [DRSC09902]: z-score, replicate 1 = 0.3
CG11696 [DRSC19417]: z-score, replicate 1 = 0.04
CG14435 [DRSC17928]: z-score, replicate 1 = -0.02
pes (peste) [DRSC03033]: z-score, replicate 1 = 0.07
inaF-B [DRSC18903]: z-score, replicate 1 = 0.32

The results go on.
With knock-down of Andorra [DRSC19475], the screen gave z-score, replicate 1 = 0.15. With knock-down of ng1 (new glue 1) [DRSC18802], the screen gave z-score, replicate 1 = 0.03. CG34289 [DRSC13625] scored z-score, replicate 1 = 0.46. Gr22b (Gustatory receptor 22b) [DRSC20911] scored z-score, replicate 1 = -1.71; phenotype, replicate 1 = reduced secretion. For CG30349 [DRSC06421], the values are z-score, replicate 1 = 0.19. With knock-down of CG30349 [DRSC06839], the screen gave z-score, replicate 1 = 0.13.

Against Had2 (beta Hydroxy acid dehydrogenase 2) [DRSC05971], the entry reads z-score, replicate 1 = 0.42. With knock-down of EcR (Ecdysone receptor) [DRSC04906], the screen gave z-score, replicate 1 = 0.69. For EcR (Ecdysone receptor) [DRSC04910], the entry reads z-score, replicate 1 = 0.37. With knock-down of CG12134 [DRSC06109], the screen gave z-score, replicate 1 = 0.47. Knock-down of tinc (tincar) [DRSC14798] gave: z-score, replicate 1 = 0.23. After knock-down of tinc (tincar) [DRSC14799], the record shows z-score, replicate 1 = 0.48.

tinc (tincar) [DRSC16308] showed z-score, replicate 1 = 0.38. For tinc (tincar) [DRSC16309], the entry reads z-score, replicate 1 = 0.22. With knock-down of obst-A (obstructor-A) [DRSC20543], the screen gave z-score, replicate 1 = 0.26. Silencing of Scox (Synthesis of cytochrome c oxidase) [DRSC03117] gave: z-score, replicate 1 = -0.63. Knock-down of Cda4 (Chitin deacetylase-like 4) [DRSC20623] resulted in: z-score, replicate 1 = 0.76. Cda4 (Chitin deacetylase-like 4) [DRSC20641] showed z-score, replicate 1 = 0.27.

Silencing of Cda4 (Chitin deacetylase-like 4) [DRSC20642] came out at: z-score, replicate 1 = 0.65.
